For one substance, binding results are on record in patent US20090181025A1.

Protein sequences, listed by entry. Tags and fused reporters are not part of them. Lines headed by an entry give the natural chain unless they say otherwise; changes in a name come on top. Residues count along the entry.
UniProt P20491, residues 19-86: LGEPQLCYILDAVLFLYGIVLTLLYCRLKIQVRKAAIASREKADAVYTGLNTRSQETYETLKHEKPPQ
UniProt B6A8R8: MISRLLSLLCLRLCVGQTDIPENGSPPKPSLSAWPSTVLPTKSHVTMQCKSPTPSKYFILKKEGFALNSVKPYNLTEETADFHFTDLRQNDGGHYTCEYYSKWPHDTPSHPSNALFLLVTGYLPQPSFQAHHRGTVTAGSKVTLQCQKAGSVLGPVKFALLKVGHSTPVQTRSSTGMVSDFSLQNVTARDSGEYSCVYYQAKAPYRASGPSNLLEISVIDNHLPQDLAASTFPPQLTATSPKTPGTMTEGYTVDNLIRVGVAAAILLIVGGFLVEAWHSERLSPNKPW

No constants are given. Whether binding was seen depends on the method and setting. In cells and extracts the contact can be indirect. Some binding calls cover weakened binding; strength is not graded here.

In the test the target is Flag tagged FcRγ chain expressed in B300.19 transfectants (UniProt P20491). As to the kind of experiment: co-immunoprecipitation from B300.19 transfectants (1% digitonin lysate): anti-Flag IP, immunoblot with anti-mTARM #6. Background: A western blot detects proteins with antibodies after separation by electrophoresis.

Consider “mouse TARM protein, isoform m1, expressed on B300.19 cells (from UniProt B6A8R8 17-288) (receptor)”, for which the binding result is “binds”.
